For at least one compound, name, drawing or mass did not settle the structure.
System: IL-6 release from NHEKs
Assay: PMA/A23187-induced IL-6 release from NHEKs (ELISA, normalized to viability)
Assay type: cell-based, human
Settings: 10 μM; 24 h
Method: The Normal Human foreskin-derived Epidermal Keratinocytes (NHEKs, Lonza, 00192906), isolated from foreskin of 3 Caucasian donors, were grown in Epilife medium (Fisher Scientific, M-EPI-500-A) supplemented with Human Keratinocyte Growth Supplement (HKGS, Fisher Scientific, S-001-5) and antibiotics (Gentamycin, Fisher Scientific, 15710-049). The cells were maintained in a humidified incubator at 37° C. with a 5% CO2 atmosphere.
E4 and E2, provided as powder, were dissolved in 100% ethanol at 0.1M. They were then further diluted in ethanol and in culture medium to reach the appropriate concentrations. […]
In order to induce the release of IL-6, NHEKs were exposed for 24 h with phorbol myristate acetate (PMA) at 10 ng/mL, in combination with calcium ionophore A23187 (Sigma Aldrich, C5722) at 2 μM. […] At the end of 24 h treatment, supernatants were harvested and stored at −20° C., and cell viability assay was assessed by MTS (see section 5). […]
The quantification of the release of inflammatory markers was performed using specific ELISA kits, based on standard curves, according to supplier's specifications. […]
The supplier's reference of the kits used for IL-6 quantification is as follows: IL-6, BioTechne, D6050. […]
NHEKs were treated as described in the methodology section. The quantification of IL-6 by ELISA was performed from the collected supernatants, following the instructions of the kit provider. […]

C[C@@H]1C[C@H]2[C@@H]3CCC4=CC(=O)C=C[C@]4(C)[C@@]3(F)[C@@H](O)C[C@]2(C)[C@@]1(O)C(=O)CO [dexamethasone, reference compound]
PMA/A23187-induced IL-6 release, anti-inflammatory reference: inhibited this effect

— patent publication US20250325467A1, “COMPOSITIONS FOR PREVENTING OR TREATING SKIN AGING” (ESTETRA SRL, priority 2021, published 2025)
